Our source for the AC50 values is PubChem BioAssay AID1487 (National Center for Advancing Translational Sciences (NCATS), 2009).

The assay in a line: qHTS Assay for Modulators of Lamin A Splicing. The conditions noted are these: HeLa LMNA splicing GFP/RFP minigene ratio, 48 h. The method in brief:
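Read-out is the ratio of GFP to DsRed2 object intensity, acquired by 488 nm laser-scanning cytometry on HeLa lamin A-EGFP minigene reporter cells. Compound incubation 48 hrs at 37 °C in Opti-MEM with 2% FBS; DMSO 0.5% final.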

Where [1] appears, read: measured here: GFP splicing reporter channel.
[2] abbreviates: measured here: RFP viability control channel.

Each structure is given as a SMILES string. Some of the results follow. Further columns of the screen follow, without active or inactive calls. Most of these compounds were active or inconclusive in the main read-out, so they are no random draw. The note in brackets gives the kind of curve behind each potency; many fits are weak.

Broadly, the AC50 is the midpoint of the concentration-response curve, whichever way the signal moves. Consider `Cc1ccn(CC(=O)N/N=C/c2cc([N+](=O)[O-])ccc2O)n1`, for which the half-maximal activity concentration (AC50) by setting is: under setting [1], 17.8 µM [rising, partial curve]; under setting [2], 22.4 µM [rising, single point].
`CCOC(=O)C1CCCN(C(=O)C(C)(C)Oc2ccc(Cl)cc2)C1` (stereo not given): the AC50 was 0.02 µM [falling, full curve, poor fit] under setting [1] and 0.141 µM [falling, full curve, poor fit] under setting [2].
Regarding `CC(C)CC1c2[nH]c3ccccc3c2CCN1C(=O)CCC(=O)N(C)C` (stereo not given), the AC50 under setting [1] was 22.4 µM [falling, single point].
Take `Clc1ccc(-c2c[n+](Cc3cccc(Cl)c3)c3n2CCC3)cc1`: the AC50 under setting [1] was 12.6 µM [rising, single point] and the concentration at half-maximal activity (AC50) under setting [2] is 15.8 µM [rising, partial curve].
Take `COc1ccc(-c2[nH]c(-c3cc(OC)c4c(c3)OCO4)nc2-c2ccccc2)cc1`: the concentration at half-maximal activity (AC50) under setting [2] was 20 µM [rising, partial curve].
On the same count and under the same terms, next, `CNC(=O)c1cccnc1Nc1cccc(C(F)(F)F)c1`: 1.12 µM [rising, full curve, poor fit].
On to `COc1ccc(NS(=O)(=O)c2ccc(NC(=O)Cc3cccs3)cc2)cc1`, for which the AC50 under setting [1] was 14.1 µM [rising, single point] and the concentration at half-maximal activity (AC50) under setting [2] is 20 µM [rising, partial curve].
Take `O=C(Nc1ccc(N2CCN(C(=O)c3ccco3)CC2)c(Cl)c1)c1cc2ccccc2o1`: the AC50 is, setting by setting: under setting [1], 14.1 µM [falling, partial curve]; under setting [2], 3.55 µM [falling, partial curve].
As to `COc1ccc(Cn2nnnc2C(C(C)C)N2CCc3ccccc32)cc1` (stereo not given), the AC50 under setting [1] is 12.6 µM [rising, single point].
The same measure, in the same setting: next, `N#Cc1c(NC(=O)Cn2cnc3ccccc3c2=O)oc(-c2ccccc2)c1-c1ccccc1`: 14.1 µM [rising, partial curve]; `COc1ccccc1N1CCN(c2csc3ccc(Cl)cc3c2=O)CC1`: 0.794 µM [falling, full curve].
Consider `Cc1c(N=Cc2c(O)n(Cc3ccco3)c(=O)c3ccccc23)c(=O)n(-c2ccccc2)n1C`, for which the concentration at half-maximal activity (AC50) is 5.01 µM [rising, partial curve, poor fit] under setting [1] and 2.24 µM [rising, full curve] under setting [2].
As to `N#C/C(=C(/O)COc1ccc(Cl)cc1)c1nc2ccccc2s1`, the concentration at half-maximal activity (AC50) under setting [1] is 35.5 µM [rising, single point].
Regarding `CCOc1ccc(NC(=O)c2ccccc2NS(=O)(=O)c2ccc(F)cc2)c([N+](=O)[O-])c1`, the half-maximal activity concentration (AC50) under setting [2] is 17.8 µM [rising, partial curve, poor fit].
On the same count and under the same terms, next, `CCc1ccc2c(c1)C1(NN=C(c3ccc(C)cc3)S1)C(=O)N2` (stereo not given): 3.16 µM [falling, single point]; `O=C(Nc1ccc2c(c1)OCCO2)c1ccc(NC(=O)C2CCCO2)cc1` (stereo not given): 11.2 µM [rising, single point]; `O=C1c2cccc(OCc3ccc(F)cc3)c2CCN1Cc1ccccc1`: 1.78 µM [rising, partial curve].
For the compound `CC(=O)N1c2ccccc2C(C)=CC1(C)C`, the concentration at half-maximal activity (AC50) by setting is: under setting [1], 0.0316 µM [rising, full curve, poor fit]; under setting [2], 0.0224 µM [rising, full curve, poor fit].
As for `NC(N)=N/N=C/c1ccc(Br)cc1`, the AC50 under setting [1] is 35.5 µM [falling, single point].
For the compound `O=C(NNc1nc2ccccc2s1)c1ccc(F)cc1`, the concentration at half-maximal activity (AC50) under setting [1] was 14.1 µM [rising, single point] and the AC50 under setting [2] is 35.5 µM [rising, single point].
For `Cc1ccc(C2=Nc3ccccc3N(CC(=O)NCc3ccc(F)cc3)C(=O)C2)cc1C`, the AC50 by setting is: under setting [1], 12.6 µM [falling, single point]; under setting [2], 14.1 µM [falling, partial curve].
Turning to `COc1ccc(N(CC(=O)NC2CCCC2)C(=O)Cn2nnc(-c3ccc(C)cc3)n2)cc1`, the concentration at half-maximal activity (AC50) under setting [2] is 14.1 µM [rising, single point].
Consider `CCn1cc(C(=O)O)c(=O)c2cnc(N3CCCC3)nc21`, for which the AC50 under setting [1] was 0.0282 µM [falling, full curve, poor fit] and the AC50 under setting [2] is 7.94 µM [falling, single point].
With `Clc1ccc(OCCN2CCN(c3ncnc4sccc34)CC2)cc1`, the half-maximal activity concentration (AC50) is 1.78 µM [rising, partial curve] under setting [1] and 0.178 µM [rising, full curve] under setting [2].
Take `COc1ccc(CC(=O)Nc2cccc(-c3nnc(-c4cccc(C)c4)o3)c2)cc1OC`: the AC50 under setting [2] was 3.55 µM [rising, partial curve].
On the same count and under the same terms, next, `COc1ccccc1C(=O)NNC(=O)CCCN1C(=O)/C(=C/c2cccs2)SC1=S`: 6.31 µM [rising, single point]; `COc1cc(C(=O)Oc2ccccc2/C=N/NC(=O)c2ccc(Cl)cc2)cc(OC)c1OC`: 20 µM [rising, single point]; `COc1ccc(-c2nn(-c3ccccc3)cc2/C=N/NC(=O)c2cccc(S(=O)(=O)Nc3ccccc3Cl)c2)cc1`: 12.6 µM [rising, partial curve, poor fit].
As for `Cc1ccc(-c2nnc(SCc3ccccc3F)o2)cc1`, the half-maximal activity concentration (AC50) under setting [2] is 31.6 µM [rising, single point].
With `COc1cc(Nc2ncc3c(n2)CCN(Cc2cc(Br)cs2)C3)cc(OC)c1`, the AC50 under setting [1] was 35.5 µM [falling, single point].
For the compound `COC(=O)c1cc(C(=O)c2ccc(C(C)(C)C)cc2)c[nH]1`, the AC50 under setting [1] is 3.98 µM [falling, partial curve] and the AC50 under setting [2] is 12.6 µM [falling, partial curve].
In the case of `CCCC(=O)c1cc2ccccc2oc1=O`, the concentration at half-maximal activity (AC50) under setting [2] is 12.6 µM [rising, single point].
On the same count and under the same terms, for `CCCCN=c1scc(-c2ccc3c(c2)NC(=O)CO3)n1N=C1CCCC1` the value was 22.4 µM [rising, single point].
In the case of `Oc1cccc(-c2nc3ccc4ccccc4c3c3c2CCC3)c1`, the AC50 under setting [1] is 35.5 µM [falling, single point] and the half-maximal activity concentration (AC50) under setting [2] is 14.1 µM [falling, partial curve].
For `Cc1sc(NC(=O)Cc2ccc3c(c2)OCO3)nc1-c1ccc2c(c1)CCN2C(=O)c1ccccc1F`, the half-maximal activity concentration (AC50) under setting [2] is 4.47 µM [rising, full curve].
As to `Cc1occc1C(=O)Nc1ccc(OCc2ccccc2)cc1`, the AC50 under setting [1] is 14.1 µM [rising, single point].
For the compound `Cc1ccc(Cl)cc1Nc1nc(-c2sc(NC(=O)c3ccco3)nc2C)cs1`, the AC50 is 5.01 µM [falling, single point] under setting [1] and 3.16 µM [falling, single point] under setting [2].
For the compound `CCOc1ccc(OCCSc2nnnn2C2CCCCC2)cc1`, the half-maximal activity concentration (AC50) under setting [1] was 35.5 µM [rising, single point] and the AC50 under setting [2] was 35.5 µM [rising, single point].
As to `Cc1ccc(S(=O)(=O)Nc2ccc(C(OC(=O)c3ccccc3[N+](=O)[O-])(C(F)(F)F)C(F)(F)F)cc2)cc1`, the AC50 under setting [2] was 2.24 µM [rising, single point].
As to `Cc1cc(C)n2nc(C(=O)OCC(=O)N3CCC3)nc2n1`, the AC50 under setting [1] was 0.794 µM [falling, full curve, poor fit].
Regarding `Cc1cc2c(cc1C)N(C(=O)CN1C(=O)c3ccccc3C1=O)C(C)(C)c1ssc(=S)c1-2`, the half-maximal activity concentration (AC50) under setting [2] is 35.5 µM [rising, single point].
On to `COc1ccc(-c2n[nH]c(C(F)(F)F)c2-c2cc3ccccc3o2)c(O)c1`, for which, under setting [1], the AC50 was 35.5 µM [rising, single point].
In the case of `Cn1c(-c2ccc3c(c2)OCO3)cc(=O)c2ccccc21`, the AC50 under setting [1] is 5.01 µM [falling, single point] and the AC50 under setting [2] was 3.16 µM [falling, single point].
Turning to `CCc1nnc(NS(=O)(=O)c2ccc(NC(=S)NC(=O)c3ccccc3)cc2)s1`, under setting [2], the half-maximal activity concentration (AC50) was 0.0224 µM [rising, full curve, poor fit].
As for `CCOc1ccc(C(C)=O)cc1CN1C(=O)NC(C)(C2CC2)C1=O` (stereo not given), the AC50 by setting is: under setting [1], 0.0891 µM [falling, full curve]; under setting [2], 0.316 µM [falling, full curve, poor fit].
For the compound `CC[C@@H](C)[C@H](NS(=O)(=O)c1ccc(C)cc1)C(=O)N1CCC(C(=O)NCC(=O)O)CC1`, the concentration at half-maximal activity (AC50) under setting [2] is 3.16 µM [falling, single point].
On the same count and under the same terms, for `C[C@@H](NC(=O)c1coc(=O)c(Br)c1)c1ccccc1` the value was 31.6 µM [rising, single point].
Consider `NS(=O)(=O)c1ccc(NC(=O)COc2ncnc3c2cnn3-c2ccccc2)cc1`, for which the AC50 is, setting by setting: under setting [1], 1 µM [rising, full curve, poor fit]; under setting [2], 1.58 µM [rising, partial curve, poor fit].
Turning to `CCOC(=O)N1CCN(CC(O)COc2ccc(C)cc2C(C)(C)C)CC1` (stereo not given), the AC50 runs as follows: under setting [1], 10 µM [rising, partial curve, poor fit]; under setting [2], 15.8 µM [rising, partial curve, poor fit].
For the compound `O=C(NCC(c1cccnc1)N1CCN(c2ccc(F)cc2)CC1)OCc1ccccc1` (stereo not given), under setting [2], the AC50 was 31.6 µM [rising, single point].
For the compound `COc1ccc2c(-c3ccccc3)cc(=O)[nH]c2c1`, the AC50 under setting [1] is 0.00398 µM [rising, full curve, poor fit].
Still for that read-out and setting: next, `CC(NCc1ccc2c(c1)OCO2)C(=O)NC1CCCCC1` (stereo not given): 1.41 µM [rising, full curve, poor fit].
`O=C(Nc1ccc2nc(SCC(=O)N3CCc4ccccc43)sc2c1)c1ccc(F)cc1`: the AC50 under setting [1] was 35.5 µM [falling, single point] and the half-maximal activity concentration (AC50) under setting [2] is 35.5 µM [falling, partial curve].
Consider `COc1cccc(CN(C(=O)/C=C/c2ccc(Cl)cc2)C2CCS(=O)(=O)C2)c1` (stereo not given), for which the AC50 by setting is: under setting [1], 35.5 µM [falling, partial curve]; under setting [2], 35.5 µM [falling, partial curve].
